Experimental data reported in article doi:10.1101/2025.05.14.654074.

Protein sequences, listed by entry. Tags and fused reporters are not part of them. Lines headed by an entry give the natural chain unless they say otherwise; changes in a name come on top.
UniProt Q9CZD3: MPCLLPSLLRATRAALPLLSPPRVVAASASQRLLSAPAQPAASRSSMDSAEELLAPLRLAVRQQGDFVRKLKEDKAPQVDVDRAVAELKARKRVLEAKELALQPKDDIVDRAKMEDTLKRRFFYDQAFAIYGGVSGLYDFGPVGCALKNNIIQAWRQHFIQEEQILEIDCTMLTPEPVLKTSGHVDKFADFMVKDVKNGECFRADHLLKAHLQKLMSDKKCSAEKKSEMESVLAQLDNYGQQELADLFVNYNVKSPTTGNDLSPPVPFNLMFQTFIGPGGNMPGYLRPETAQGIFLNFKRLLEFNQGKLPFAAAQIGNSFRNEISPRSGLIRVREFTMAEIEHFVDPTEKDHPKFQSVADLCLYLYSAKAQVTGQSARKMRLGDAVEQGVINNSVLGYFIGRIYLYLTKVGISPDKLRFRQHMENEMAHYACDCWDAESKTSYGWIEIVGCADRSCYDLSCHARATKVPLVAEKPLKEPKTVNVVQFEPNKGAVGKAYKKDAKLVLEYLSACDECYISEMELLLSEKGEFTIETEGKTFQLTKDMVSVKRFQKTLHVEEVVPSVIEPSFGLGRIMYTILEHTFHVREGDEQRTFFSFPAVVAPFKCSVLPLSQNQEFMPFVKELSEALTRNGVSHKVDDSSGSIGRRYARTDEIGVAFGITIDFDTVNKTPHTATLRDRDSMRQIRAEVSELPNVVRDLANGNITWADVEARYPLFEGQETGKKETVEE

Molecular target: T1, Recombinant human Nrp1-Fc chimera protein (whole extracellular portion of human Nrp1, C-terminally Fc-tagged) (human) (UniProt O14786)
T1 sequence: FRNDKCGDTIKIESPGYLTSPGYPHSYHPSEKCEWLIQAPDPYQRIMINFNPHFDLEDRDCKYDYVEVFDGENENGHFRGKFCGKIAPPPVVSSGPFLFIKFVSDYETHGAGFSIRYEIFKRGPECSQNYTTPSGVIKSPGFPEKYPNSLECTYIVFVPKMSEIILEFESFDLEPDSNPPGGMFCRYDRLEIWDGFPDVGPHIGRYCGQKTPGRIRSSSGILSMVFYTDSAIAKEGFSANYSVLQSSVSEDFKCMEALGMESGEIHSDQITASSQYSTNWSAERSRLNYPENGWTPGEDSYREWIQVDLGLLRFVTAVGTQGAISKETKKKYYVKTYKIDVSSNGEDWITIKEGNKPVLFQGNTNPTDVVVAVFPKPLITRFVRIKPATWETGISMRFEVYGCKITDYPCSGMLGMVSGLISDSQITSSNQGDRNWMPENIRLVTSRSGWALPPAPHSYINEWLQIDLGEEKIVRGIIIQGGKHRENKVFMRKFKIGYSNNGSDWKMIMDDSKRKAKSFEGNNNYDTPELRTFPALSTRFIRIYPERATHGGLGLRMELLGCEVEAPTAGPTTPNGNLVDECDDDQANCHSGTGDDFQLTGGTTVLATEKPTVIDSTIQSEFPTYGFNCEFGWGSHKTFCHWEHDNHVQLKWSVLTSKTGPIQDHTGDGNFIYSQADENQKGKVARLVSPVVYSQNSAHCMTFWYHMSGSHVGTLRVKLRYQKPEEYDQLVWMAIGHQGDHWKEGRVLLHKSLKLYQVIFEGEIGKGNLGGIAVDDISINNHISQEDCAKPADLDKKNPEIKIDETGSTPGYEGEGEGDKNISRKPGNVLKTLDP
Test: pull-down

## recombinant mouse GlyRS^ΔWHEP (from UniProt Q9CZD3) (enzyme)
  binding: binds

These are yes or no findings as the source states them, for the method shown. Binding can be weak; no strength is given. Sequences can lack the tags named with a protein.
